The whole screen tested about 360,000 compounds, of which about 7,500 (2.1%) were called active. Inconclusive results, whose numbers are uncertain, are shown with a selection of clear calls. Calls follow the shape of the dose curve; as a rule, active = well fitted inhibition curve with a large enough effect; inconclusive = small, poorly fitted or top-dose-only effect, or effect the other way; inactive = flat fitted curve, though single readings scatter. A potency beside an inconclusive call is a rough fit, not a confirmed value.
Experiment: Nrf2 qHTS screen for inhibitors; also: nearly all actives have a fitted effect of over 60% in size
Conditions: A549 ARE-Fluc reporter, luciferase luminescence, 18-24 h; activity change, negative = inhibition: at 46 µM (top of the series)
In short: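 Quantitative HTS in A549 cells stably bearing an antioxidant response element-firefly luciferase construct. Inhibition of Nrf2-driven transcription was scored by luminescence after 18-24 h of compound exposure at 37 °C.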
% is scaled to controls: 0 for no effect and ±100 for the full control effect; potency is read from the fitted curve at half-maximal effect.

| SMILES | Potency | activity change, negative = inhibition |
| --- | --- | --- |
| N#CC(C#N)=Cc1ccc(OC(=O)c2ccccn2)cc1 | inconclusive: 25.9 µM [activator, partial curve, poor fit] |  |
| O=C(CN1CCCN(S(=O)(=O)c2ccc(Br)cc2)CC1)Nc1cccc(C(F)(F)F)c1 | inconclusive: 23.1 µM [falling, single point] |  |
| Cc1ccc2nc(NCc3ccccc3)c(C=O)c(=O)n2c1 | inconclusive: 23.1 µM [activator, partial curve, poor fit] |  |
| COc1cc(F)c(S(=O)(=O)N2CCCN(S(=O)(=O)c3cccc(NC(C)=O)c3)CC2)c(F)c1 | active: 16.4 µM |  |
| CC12CCC3c4ccc(O)cc4CCC3C1CC(O)C2O (configuration not stated) | inconclusive: 11.6 µM [falling, partial curve] |  |
| O=C(CCN1C(=O)/C(=C/c2ccccc2Cl)SC1=S)NC1C=CS(=O)(=O)C1 (configuration not stated) |  | inactive: -17% |
| Cc1c(C)n(CCCN(C)C)c2ncnc(Nc3ccc(F)cc3)c12 | inconclusive: 7.31 µM [activator, partial curve, poor fit] |  |
| O=C1c2ccccc2C(=O)c2cc(S(=O)(=O)Nc3ccccc3)ccc21 | inconclusive: 23.1 µM [falling, single point] |  |
| Cc1cc(C)c2nc(N(CCCN(C)C)C(=O)c3ccc4c(c3)OCCO4)sc2c1 | inconclusive: 20.6 µM [activator, partial curve, poor fit] |  |
| CCCCCC(=O)Nc1ccc(C(=O)COC(=O)c2ccccn2)cc1 | inconclusive: 18.4 µM [activator, single point] |  |
| CCOc1ccc(C(=O)Cn2cnc3ccccc3c2=O)cc1 | inconclusive: 8.2 µM [activator, partial curve] |  |
| COc1ccc(NC(=O)CCCn2c(=O)c3sccc3n(Cc3ccccc3)c2=O)cc1 | inconclusive: 0.651 µM [falling, full curve, poor fit] |  |
| COc1ccc(Br)cc1C(=O)Nc1cccc(NC(=O)c2ccco2)c1 | inconclusive: 20.6 µM [falling, single point] |  |
| CC1CCN(c2nc3nonc3nc2Nc2ccc(F)cc2)CC1 | active: 9.2 µM |  |
| COc1ccc2c(=O)c(Oc3ccc(C(=O)O)cc3)c(C(F)(F)F)oc2c1 | inconclusive: 9.2 µM [activator, partial curve, poor fit] |  |
| CCC1(c2ccc(F)cc2)NC(=O)N(CC(=O)N2CCN(S(=O)(=O)c3ccc(C)cc3)CC2)C1=O (configuration not stated) | inconclusive: 32.6 µM [falling, single point] |  |
| C1=Nc2ccccc2CN1c1ccccc1 | inconclusive: 10.3 µM [activator, partial curve] |  |
| Cn1cccc1C(=O)OCC(=O)Nc1ccc2c(c1)OCO2 | inconclusive: 9.2 µM [activator, partial curve] |  |
| CC1CC(C)CN(C(=O)C2CCCN(c3ncnc4c3nc3n4CCCCC3)C2)C1 (configuration not stated) | inconclusive: 18.4 µM [falling, partial curve] |  |
| COc1ccc(C(=O)COC(=O)c2ccc(Cl)nc2)c(OC)c1 | inconclusive: 10.3 µM [activator, partial curve, poor fit] |  |
| N#Cc1ccc(C(=O)CSc2n[nH]c(=O)n2Cc2ccco2)cc1 |  | inactive: -5.06% |
| COc1ccccc1NC(=O)COC(=O)c1cc([N+](=O)[O-])ccc1N1CCCC1 | inconclusive: 32.6 µM [falling, single point] |  |
| CCN1CCN(c2ccc(S(=O)(=O)N3CCCCC3)cc2NC(=O)c2ccc(OC(F)F)cc2)CC1 | inconclusive: 0.116 µM [falling, full curve, poor fit] |  |

| SMILES | Potency | activity change, negative = inhibition |
| --- | --- | --- |
| O=C(Nc1ccn(Cc2c(F)c(F)c(F)c(F)c2F)n1)c1ccc(COc2ccccc2Cl)cc1 | inconclusive: 29.1 µM [falling, single point] |  |
| COc1ccc(Cn2c(SCc3cc(C)ccc3C)nc3cc(OC)c(OC)cc3c2=N)cc1 | active: 23.1 µM |  |
| Cc1ccc(CNC(=O)CCCCCn2c(=O)c3sccc3n(CC(=O)Nc3ccc(C)c(F)c3)c2=O)cc1 |  | inactive: -3.51% |
| CCCn1c(N)c(C(=O)CSc2nc(C)cs2)c(=O)n(C)c1=O | inconclusive: 9.2 µM [falling, partial curve, poor fit] |  |
| Cc1ccc(CNc2nc3c([nH]2)c(=O)n(C)c(=O)n3C)cc1 | active: 9.2 µM |  |
| S=C(NCC1CCCO1)N1CCN(c2nc(-c3ccc(Cl)cc3)cs2)CC1 (configuration not stated) | active: 16.4 µM |  |
| COc1cccc(C(=O)NC(=NCCc2c[nH]c3ccc(OC)cc23)Nc2nc(C)cc(C)n2)c1 | inconclusive: 18.4 µM [falling, single point] |  |
| CCN1C(C(=O)c2ccccc2)=C(OC(=O)COc2ccc(OC)cc2)c2ccccc2S1(=O)=O | inconclusive: 29.1 µM [falling, single point] |  |
| CCCCNC(=O)CCn1c(=O)c2ccccc2n(Cc2ccc(Cl)cc2)c1=O |  | inactive: -21% |
| O=C(Nc1ccc(-c2nc3ccccc3o2)c(O)c1)c1cc(-n2cnnc2)ccc1Cl | active: 10.3 µM |  |
| Cc1cccc(C)c1NC(=O)CSc1nnc(-c2ccoc2C)n1C |  | inactive: 5.25% |
| Cc1ccc(NC(=O)COc2coc(CN3CCc4ccccc43)cc2=O)cc1Cl | inconclusive: 23.1 µM [falling, single point] |  |
| OC(c1ccccc1)c1nc2ccccc2s1 (configuration not stated) | inconclusive: 16.4 µM [activator, partial curve, poor fit] |  |
| COc1ccc2c(c1)c(CC(=O)Nc1ccc(C(C)=O)cc1)c(C)n2C(=O)c1ccc(Cl)cc1 | active: 23.1 µM |  |
| c1ccc(N2CCN(c3nc(NCc4ccco4)c4ccccc4n3)CC2)cc1 | inconclusive: 29.1 µM [falling, single point] |  |
| COc1ccc(CN(C)CC(=O)Nc2cccc3ccccc23)cc1F | inconclusive: 32.6 µM [activator, single point] |  |
| O=C(C=Cc1cccc(Cl)c1)c1ccccc1 | inconclusive: 20.6 µM [activator, single point] |  |
| Cc1ccc(NC(=O)c2oc3ccccc3c2NC(=O)c2ccc(F)c(F)c2)cc1 |  | inactive: -17% |
| c1ccc(-c2nnc(CN3CCCCC3)o2)cc1 | inconclusive: 14.6 µM [activator, single point] |  |
| CCN(CC)CCn1c2ccc(Cl)cc2c2nc(C)sc21 | inconclusive: 0.517 µM [falling, full curve] |  |
| CCOC(=O)c1cnn(-c2ccc(Cl)cc2)c1C1CCN(C(=O)OC(C)(C)C)CC1 | inconclusive: 16.4 µM [falling, partial curve, poor fit] |  |
| O=c1oc2ccccc2cc1-c1csc(Nc2ccc(O)cc2)n1 | inconclusive: 29.1 µM [activator, single point] |  |
| Cc1ccc(-c2nnc(SCC(=O)N/N=C/c3c(C)nn(-c4ccccc4)c3C)n2-c2ccccc2)cc1 | inconclusive: 29.1 µM [falling, single point] |  |

Laid out differently: entries from further up.
Cc1ccc(CNc2nc3c([nH]2)c(=O)n(C)c(=O)n3C)cc1
  Potency: active: 9.2 µM
S=C(NCC1CCCO1)N1CCN(c2nc(-c3ccc(Cl)cc3)cs2)CC1 (configuration not stated)
  Potency: active: 16.4 µM
COc1cccc(C(=O)NC(=NCCc2c[nH]c3ccc(OC)cc23)Nc2nc(C)cc(C)n2)c1
  Potency: inconclusive: 18.4 µM [falling, single point]
CCN1C(C(=O)c2ccccc2)=C(OC(=O)COc2ccc(OC)cc2)c2ccccc2S1(=O)=O
  Potency: inconclusive: 29.1 µM [falling, single point]

Following part

| SMILES | Potency | activity change, negative = inhibition |
| --- | --- | --- |
| O=C(O)Cn1cc(C(=S)N2CCCCC2)c2ccccc21 |  | inactive: 9% |
| O=C(CCN1C(=O)c2ccccc2Sc2ncccc21)Nc1ccc(F)cc1F |  | inactive: 14.3% |
| Cc1cccc(NC(=O)c2ccccn2)c1C | inconclusive: 8.2 µM [activator, partial curve] |  |
| Cc1ccccc1C(=O)Nc1sc2c(c1C(=O)N1CCCCC1)CCC(C)C2 (configuration not stated) |  | inactive: -21.1% |
| Cc1cc(NC(=O)c2cc(-c3ccncc3)nc3ccccc23)ccc1Br | inconclusive: 18.4 µM [falling, partial curve, poor fit] |  |
| COc1cccc(C(=O)N2c3ccc(C)cc3C(C)(c3ccccc3)CC2(C)C)c1 (configuration not stated) | inconclusive: 29.1 µM [falling, single point] |  |
| Cn1cc([N+](=O)[O-])c(C(=O)N/N=C/c2ccc3c(c2)OCO3)n1 | inconclusive: 18.4 µM [activator, partial curve] |  |
| Cc1ccc(NC(=O)Nc2ccc3c(c2)C(=O)OC3)cc1Cl |  | inactive: -7.34% |
| COCCn1c(C)cc(C(=O)COc2ccc(C)nc2[N+](=O)[O-])c1C | inconclusive: 7.31 µM [falling, partial curve] |  |
| Cc1ccc(OCCOc2ccc(Br)cc2)c([N+](=O)[O-])n1 | inconclusive: 20.6 µM [activator, single point] |  |
| O=C(c1ccc(Cl)cc1)C(CN1CCCCC1)c1ccccc1 (configuration not stated) |  | inactive: -11.1% |
| Cc1cccc2sc(NC(=O)CSc3nc4ccccc4o3)nc12 | inconclusive: 32.6 µM [falling, single point] |  |
| COC(=O)c1ccc(OCC(=O)c2ccc(C)c(C)c2)cc1 | inconclusive: 29.1 µM [activator, single point] |  |
| Cc1ccccc1C(=O)N/N=C1/SCC(=O)N1Cc1ccc2c(c1)OCO2 | inconclusive: 29.1 µM [falling, single point] |  |
| CCCCCc1c(C)nc(N2CCc3ccccc3C2)[nH]c1=O |  | inactive: 2.08% |
| O=C(c1cc(COc2cccc3cnccc23)on1)N1CCCC(CCCO)C1 (configuration not stated) | active: 3.66 µM |  |
| Cn1cnc(C(=O)NCc2ccc(CNC(=O)OC(C)(C)C)cc2)c1C(=O)NCc1ccc(CNC(=O)OC(C)(C)C)cc1 | active: 18.4 µM |  |
| COc1ccc(NC(=O)COc2ccc(C(=O)c3ccc(F)cc3)cc2)cc1S(N)(=O)=O | inconclusive: 16.4 µM [falling, single point] |  |
| COC(=O)c1ccc(-c2ccc(Cl)cc2)nc1C | inconclusive: 25.9 µM [activator, single point] |  |
| C=CCn1cccc(C(=O)Nc2ccc(SC)cc2)c1=O | inconclusive: 3.66 µM [activator, single point] |  |
| N#Cc1ccc(CN2CCN(C(=O)c3ccc(S(=O)(=O)NCc4ccco4)cc3)CC2)cc1 | active: 8.2 µM |  |

Source: PubChem BioAssay AID504444 (National Center for Advancing Translational Sciences (NCATS), 2011)
